At least one peptide structure holds a part that was inferred or is arguable (an end, a ring closure or a residue). Marks after values point to notes of the source that are not given here.
Experiments:
Assay type in all cases: in vivo, mice
[1] = test system: LPS-induced acute lung injury mouse model; experiment: LPS-induced acute lung injury model in mouse (Example 8); settings: HCl salts; for Mean (SEM) Alveolar Neutrophil Infiltration Score / Mean (SEM) Interstitial Neutrophil Infiltration Score / Mean (SEM) Composite Lung Injury Score: histopathology, 24 h after LPS; for Mean (SEM) Alveolar Neutrophil Infiltration Score / Mean (SEM) Interstitial Neutrophil Infiltration Score: 0-5 scale
Description: The effect of the peptides of the current invention on acute lung injury can be assessed in an LPS-induced acute lung injury mouse model by monitoring outcomes such as lung weight, fluid accumulation, cytokine secretion in blood or bronchoalveolar lavage fluid (BALF), neutrophil infiltration into lung tissues, and assessment of acute lung injury score by histopathology. Acute lung injury was induced in male C57BL/6 mice (6 to 8 weeks old) by intratracheal administration of 40 μL lipopolysaccharide (LPS) (Sigma Aldrich, St. Louis, Mo.) in PBS at 5 mg/kg. Control animals received intratracheal PBS alone. Animals (n=8 per treatment group) induced with LPS received intraperitoneal treatment with: PBS (vehicle control) or test peptides at 5 or 15 mg/kg in water. Treatments were administered 1 h prior to LPS for animals designated for termination at 4 h after LPS, or at both 1 h prior to and 6 h after LPS for animals designated for termination at 24 h after LPS. At 4 or 24 hours post-LPS administration, tissues were harvested. Lungs were weighed and flushed with Hanks Buffer to provide bronchoalveolar lavage fluid (BALF). Lungs collected at 24 h were fixed in 10% neutral buffered formalin (NBF) for histopathology. Tissue slides were stained with hematoxylin and eosin (H&E) and evaluated and scored with light microscopy of 5 representative microscopic fields (100× magnification) scoring on a 0-5 scale using standard methods (Matute-Bello G et al 2011. An Official American Thoracic Society Workshop Report: Features and Measurements of Experimental Acute Lung Injury in Animals. Am J Respir Cell Mol Biol 44:725-38). The average score for five fields was calculated for each animal. Levels of pro-inflammatory cytokines in BALF at 4 h were determined using a meso scale discovery (MSD) system. Data for test peptides were compared to the vehicle control group. Table 13 compares the lung weights following LPS induction and treatment with PBS (vehicle control), or peptides. Table 14 compares the levels of pro-inflammatory cytokines in BALF following LPS induction and treatment with PBS (vehicle control) or peptides. Table 15 compares the histopathology scores for infiltration of neutrophils into alveoli and interstitial lung tissue and the composite lung injury score following LPS induction and treatment with PBS (vehicle control) or peptides.

[2] = test system: LPS-induced acute lung injury mouse model; experiment: LPS-induced acute lung injury model in mouse (Example 6); settings: for Pro-inflammatory Cytokine Level IFNγ / Pro-inflammatory Cytokine Level IL-1β / Pro-inflammatory Cytokine Level IL-6 / Pro-inflammatory Cytokine Level IL-17-A / Pro-inflammatory Cytokine Level IL-17-C / Pro-inflammatory Cytokine Level IL-23 / Pro-inflammatory Cytokine Level KC/GRO / Pro-inflammatory Cytokine Level TNFα: BALF; for Mean (SEM) Lung Weight: normalized to body weight
Description: The effect of the peptides of the current invention on acute lung injury can be assessed in an LPS-induced acute lung injury mouse model by monitoring outcomes such as lung weight, fluid accumulation, cytokine secretion in blood or bronchoalveolar lavage fluid (BALF), neutrophil infiltration into lung tissues, and assessment of acute lung injury score by histopathology. Acute lung injury was induced in male C57BL/6 mice (6 to 8 weeks old) by intratracheal administration of 40 μL lipopolysaccharide (LPS) (Sigma Aldrich, St. Louis, Mo.) in PBS at 5 mg/kg. Control animals received intratracheal PBS alone. […] Treatments were administered 1 h prior to LPS for animals designated for sacrifice at 4 h after LPS, or at both 1 h prior to and 6 h after LPS for animals designated for sacrifice at 24 h after LPS. At 4 or 24 hours post LPS administration, tissues were harvested. Lungs were weighed, flushed with Hanks Buffer to provide bronchoalveolar lavage fluid (BALF). Lungs were fixed in 10% neutral buffered formalin (NBF) for histopathology. Tissue slides were stained with hematoxylin and eosin (H&E) and evaluated and scored with light microscopy of 5 representative microscopic fields (100× magnification) scoring on a 0-5 scale using standard methods (Matute-Bello G et al 2011. An Official American Thoracic Society Workshop Report: Features and Measurements of Experimental Acute Lung Injury in Animals. Am J Respir Cell Mol Biol 44:725-38). The average score for five fields was calculated for each animal. Levels of pro-inflammatory cytokines in BALF were determined using a meso scale discovery (MSD) system. Data for test peptides were compared to the vehicle control group. Lung weights were normalized to body weight.

[3] = test system: LPS-induced acute lung injury mouse model; experiment: LPS-induced acute lung injury model in mouse (Example 7); settings: 4 h after LPS, 5 mg/kg i.p.
Description: The effect of the peptides of the current invention on acute lung injury can be assessed in an LPS-induced acute lung injury mouse model by monitoring outcomes such as lung weight, fluid accumulation, cytokine secretion in blood or bronchoalveolar lavage fluid (BALF). Acute lung injury was induced in male C57BL/6 mice (6 to 8 weeks old) by intratracheal administration of 40 μL lipopolysaccharide (LPS) (Sigma Aldrich, St. Louis, Mo.) in PBS at 5 mg/kg. Control animals received intratracheal PBS alone. Animals (n=8 per treatment group) induced with LPS received intraperitoneal treatment with: PBS (vehicle control) or test peptides at 5 mg/kg in water. Treatments were administered 1 h prior to LPS. At 4 h post LPS administration, tissues were harvested. Lungs were weighed, flushed with Hanks Buffer to provide bronchoalveolar lavage fluid (BALF). Data for test peptides were compared to the vehicle control group. Table 11 compares the lung weights following LPS induction and treatment with PBS (vehicle control) or peptides. Table 12 compares the levels of pro-inflammatory cytokines in BALF following LPS induction and treatment with PBS (vehicle control) or peptides.

[4] = BALF, 4 h after LPS, 15 mg/kg i.p.
[5] = histopathology, 0-5 scale, 24 h after LPS, 5 mg/kg i.p.

For `CSCC[C@H](NC(=O)CNC(=O)[C@H](CCSC)NC(=O)[C@H](CCSC)NC(=O)[C@H](CCCNC(=N)N)NC(=O)[C@@H](N)CCCNC(=N)N)C(=O)N[C@H](C(=O)N[C@@H](Cc1ccccc1)C(=O)N[C@@H](CCC(N)=O)C(=O)N[C@@H](CO)C(=O)N[C@@H](CC(C)C)C(=O)N[C@@H](CS)C(=O)NCC(=O)N[C@H](C)C(=O)O)C(C)C` [SEQ ID NO: 15], the “Pro-inflammatory Cytokine Level KC/GRO” value [1, 4] was 3140 (135) pg/mL, the “Pro-inflammatory Cytokine Level MCP-1” value [1, 4] was 1110 (233) pg/mL and the “Pro-inflammatory Cytokine Level MIP-1α” value [1, 4] was 5540 (55.0) pg/mL. For the same molecule, the “Pro-inflammatory Cytokine Level MIP-2” value [1, 4] was 3100 (141) pg/mL, the “Pro-inflammatory Cytokine Level MIP-3α” value [1, 4] was 1040 (64.2) pg/mL and the “Pro-inflammatory Cytokine Level TNFα” value [1, 4] was 3270 (247) pg/mL. The “Mean (SEM) Alveolar Neutrophil Infiltration Score” value ([1]; 5 mg/kg i.p.) was 1.80 (0.14), the “Mean (SEM) Interstitial Neutrophil Infiltration Score” value ([1]; 5 mg/kg i.p.) was 1.83 (0.17) and the “Mean (SEM) Alveolar Neutrophil Infiltration Score” value ([1]; 15 mg/kg i.p.) was 1.28 (0.15). For the same molecule, the “Mean (SEM) Interstitial Neutrophil Infiltration Score” value ([1]; 15 mg/kg i.p.) was 1.15 (0.18), the “Mean (SEM) Composite Lung Injury Score” value ([1]; 5 mg/kg i.p.) was 3.83 (0.30) and the “Mean (SEM) Composite Lung Injury Score” value ([1]; 15 mg/kg i.p.) was 2.55 (0.28). For the same molecule, the “Pro-inflammatory Cytokine Level IFNγ” value ([2]; 4 h after LPS, 5 mg/kg i.p.) was 0.00 pg/mL, the “Pro-inflammatory Cytokine Level IL-1β” value ([2]; 4 h after LPS, 5 mg/kg i.p.) was 78.9 pg/mL and the “Pro-inflammatory Cytokine Level IL-6” value ([2]; 4 h after LPS, 5 mg/kg i.p.) was 2840 pg/mL. For the same molecule, the “Pro-inflammatory Cytokine Level IL-17-A” value ([2]; 4 h after LPS, 5 mg/kg i.p.) was 0.22 pg/mL, the “Pro-inflammatory Cytokine Level IL-17-C” value ([2]; 4 h after LPS, 5 mg/kg i.p.) was 0.86 pg/mL and the “Pro-inflammatory Cytokine Level IL-23” value ([2]; 4 h after LPS, 5 mg/kg i.p.) was 0.75 pg/mL. The “Pro-inflammatory Cytokine Level KC/GRO” value ([2]; 4 h after LPS, 5 mg/kg i.p.) was 1980 pg/mL, the “Pro-inflammatory Cytokine Level TNFα” value ([2]; 4 h after LPS, 5 mg/kg i.p.) was 18200 pg/mL and the “Pro-inflammatory Cytokine Level IFNγ” value ([2]; 4 h after LPS, 15 mg/kg i.p.) was 0.00 pg/mL. For the same molecule, the “Pro-inflammatory Cytokine Level IL-1β” value ([2]; 4 h after LPS, 15 mg/kg i.p.) was 77.2 pg/mL, the “Pro-inflammatory Cytokine Level IL-6” value ([2]; 4 h after LPS, 15 mg/kg i.p.) was 2017 pg/mL and the “Pro-inflammatory Cytokine Level IL-17-A” value ([2]; 4 h after LPS, 15 mg/kg i.p.) was 0.08 pg/mL. For the same molecule, the “Pro-inflammatory Cytokine Level IL-17-C” value ([2]; 4 h after LPS, 15 mg/kg i.p.) was 0.72 pg/mL, the “Pro-inflammatory Cytokine Level IL-23” value ([2]; 4 h after LPS, 15 mg/kg i.p.) was 0.33 pg/mL and the “Pro-inflammatory Cytokine Level KC/GRO” value ([2]; 4 h after LPS, 15 mg/kg i.p.) was 1810 pg/mL. For the same molecule, the “Pro-inflammatory Cytokine Level TNFα” value ([2]; 4 h after LPS, 15 mg/kg i.p.) was 5680 pg/mL, the “Mean (SEM) Alveolar Neutrophil Infiltration Score” value [2, 5] was 1.73 (0.08) and the “Mean (SEM) Interstitial Neutrophil Infiltration Score” value [2, 5] was 1.50 (0.13). The “Mean (SEM) Composite Lung Injury Score” value ([2]; histopathology, 24 h after LPS, 5 mg/kg i.p.) was 3.38 (0.19), the “Mean (SEM) Lung Weight” value ([2]; 4 h after LPS, 5 mg/kg i.p.) was 1.03 (0.02)* g and the “Mean (SEM) Lung Weight” value ([2]; 4 h after LPS, 15 mg/kg i.p.) was 0.98 (0.02)** g. For the same molecule, the “Mean (SEM) Lung Weight” value ([2]; 24 h after LPS, 5 mg/kg i.p.) was 1.29 (0.04)** g, the “Mean (SEM) Lung Weight” value ([2]; 24 h after LPS, 15 mg/kg i.p.) was 1.33 (0.03)* g and the “Mean (SEM) Lung Weight” value [3] was 0.272 (0.005)* g. The “Pro-inflammatory Cytokine Level IFNγ” value ([3]; BALF) was 0.34 pg/mL, the “Pro-inflammatory Cytokine Level IL-1β” value ([3]; BALF) was 87.2 pg/mL and the “Pro-inflammatory Cytokine Level IL-2” value ([3]; BALF) was 1.86 pg/mL. For the same molecule, the “Pro-inflammatory Cytokine Level IL-4” value ([3]; BALF) was 1.85 pg/mL, the “Pro-inflammatory Cytokine Level IL-6” value ([3]; BALF) was 5020 pg/mL and the “Pro-inflammatory Cytokine Level IL-9” value ([3]; BALF) was 5.84 pg/mL. For the same molecule, the “Pro-inflammatory Cytokine Level KC/GRO” value ([3]; BALF) was 2890 pg/mL and the “Pro-inflammatory Cytokine Level TNFα” value ([3]; BALF) was 4950 pg/mL.

Reference: patent publication US20230218710A1, “METHOD OF TREATING CORONAVIRUS INFECTIONS” (priority 2020, published 2023)
